Results from patent US8778939B2, “Compounds” (Glaxo Group Limited, priority 2009, dated 2014).
Some results were stated once for a whole list of compounds, not compound by compound.

Assays:
[1] = target: T1, 6His-Tev-LRRK2 (1326-2527) (Homo sapiens, UniProt Q5S007); assay: LRRK2 AlphaScreen desensitised protein substrate assay; type: biochemical; conditions: excess of ATP present (2 mM ATP)
T1 construct: A LRRK2 cDNA encoding residues 1326-2527 was received from Dundee University; made in house; host or cells: Spodoptera frugiperda (Sf9) insect cells, baculovirus
T1 sequence (Q5S007 1326-2527): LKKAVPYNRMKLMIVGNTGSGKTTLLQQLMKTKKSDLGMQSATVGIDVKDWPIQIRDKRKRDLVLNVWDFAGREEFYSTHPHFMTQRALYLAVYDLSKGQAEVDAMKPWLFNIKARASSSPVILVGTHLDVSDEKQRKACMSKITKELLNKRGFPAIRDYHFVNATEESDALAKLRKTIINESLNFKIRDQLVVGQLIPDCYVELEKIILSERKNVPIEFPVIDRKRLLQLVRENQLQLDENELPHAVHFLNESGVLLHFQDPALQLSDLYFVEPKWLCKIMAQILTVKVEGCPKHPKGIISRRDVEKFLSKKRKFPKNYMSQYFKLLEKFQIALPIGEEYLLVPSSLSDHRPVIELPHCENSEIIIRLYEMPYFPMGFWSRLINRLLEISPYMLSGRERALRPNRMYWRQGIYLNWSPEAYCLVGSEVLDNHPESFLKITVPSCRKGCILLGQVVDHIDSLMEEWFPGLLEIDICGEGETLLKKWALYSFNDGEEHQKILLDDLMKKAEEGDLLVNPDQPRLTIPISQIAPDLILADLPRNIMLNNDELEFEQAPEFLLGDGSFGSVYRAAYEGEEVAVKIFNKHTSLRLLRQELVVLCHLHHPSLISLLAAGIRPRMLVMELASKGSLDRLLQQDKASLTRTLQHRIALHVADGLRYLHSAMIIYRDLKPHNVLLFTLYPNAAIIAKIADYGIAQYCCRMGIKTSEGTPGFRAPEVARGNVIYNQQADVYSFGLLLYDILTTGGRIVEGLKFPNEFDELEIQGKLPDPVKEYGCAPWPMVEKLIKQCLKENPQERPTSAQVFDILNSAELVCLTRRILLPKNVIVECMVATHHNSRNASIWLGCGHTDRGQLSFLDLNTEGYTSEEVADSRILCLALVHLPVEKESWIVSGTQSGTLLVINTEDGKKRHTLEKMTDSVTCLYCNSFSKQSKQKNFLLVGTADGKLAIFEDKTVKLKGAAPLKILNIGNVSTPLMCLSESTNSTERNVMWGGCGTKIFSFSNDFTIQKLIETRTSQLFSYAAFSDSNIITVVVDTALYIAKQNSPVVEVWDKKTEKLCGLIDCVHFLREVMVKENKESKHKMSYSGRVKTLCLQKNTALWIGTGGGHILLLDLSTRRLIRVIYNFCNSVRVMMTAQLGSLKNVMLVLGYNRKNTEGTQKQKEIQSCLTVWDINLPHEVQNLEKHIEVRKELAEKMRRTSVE
Procedure: a) 100 nl of a 1:4 serial dilution of test compound with a top final assay concentration of 30 μM is added to certain wells in a low volume 384 well black plate. 100 nl of DMSO is used in certain wells as controls.
b) 3 μl enzyme solution (80 nM purified recombinant 6His-Tev-LRRK2 (1326-2527) in assay buffer: 50 mM Hepes (pH 7.2), 10 mM MgCl2, 150 mM NaCl, 5% glycerol, 0.0025% triton X-100 and 1 mM DTT) is added to certain wells.
Plates are then incubated for a further 1-2 hours at room temperature (incubation time varies depending upon rate and linearity of reaction with differing enzyme batches).
d) 6 μl detection solution (1:250 dilution of AlphaLisa Protein A Acceptor beads (PerkinElmer), 1:64 dilution of AlphaLisa Gluthathione Donor beads (PerkinElmer) and 1:600 dilution (dilution determined on a batch to batch basis) of Phospho-Ezrin (Thr567)/Radixin (Thr564)/Moesin (Thr558) Polyclonal Antibody (New England Biolabs) in a buffer: 50 mM Hepes (pH 7.5), 250 mM NaCl, 60 mM EDTA, 1% PEG and 0.01% Brij 35) is added to each well. Plates are then incubated for a further 2 hours at room temperature in the dark before reading on an EnVision™ plate reader with AlphaScreen HTS turbo option module and AlphaScreen settings. Data is analysed using ActivityBase software (IDBS).
LRRK2 AlphaScreen Desensitised Protein Substrate Assay
This is conducted as described for the LRRK2 alphascreen protein substrate assay, with the following differences: • 1. The concentration of ATP in the substrate solution was 2 mM. • 2. The plates were incubated for 20 minutes at room temperature following addition of the substrate solution. Pharmacological Data

[2] = target: T1, 6His-Tev-LRRK2 (1326-2527); assay: LRRK2 peptide substrate assay; type: biochemical; conditions: Biotin-LRRKtide peptide substrate, ATP at Km
Summary of the method: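 Phosphorylation of biotin-LRRKtide/moesin substrate read by time-resolved FRET (Eu anti-rabbit IgG, streptavidin-APC, phospho-ERM Thr558 antibody; 665/620 nm). The 6His-Tev-LRRK2 (1326-2527) enzyme solution was 80 nM, in 50 mM Hepes pH 7.2 with 10 mM MgCl2 and 1 mM DTT. Incubation 1-2 h at room temperature; compounds tested up to 30 μM final, 1:4 dilutions.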

## O=C(Nc1cccnc1)c1cc(-c2cn[nH]c2)ccc1OCc1ccccc1 [Example 99, 2-[(Phenylmethyl)oxy]-5-(1H-pyrazol-4-yl)-N-3-pyridinylbenzamide]
[1]
  pIC50 in the LRRK2 alphascreen desensitised protein substrate assay: ≥ 7.0
[2]
  pIC50 in the LRRK2 peptide substrate assay: ≥ 5.6

## O=C(Nc1cccnc1)c1cc(-c2cccnc2)ccc1OCc1ccccc1 [Example 101, 2-[(Phenylmethyl)oxy]-N,5-di-3-pyridinylbenzamide]
[1]
  pIC50 in the LRRK2 alphascreen desensitised protein substrate assay: ≥ 7.0
[2]
  pIC50 in the LRRK2 peptide substrate assay: ≥ 5.6

## COCCn1cc(-c2ccc(OCc3ccc(F)cc3)c(C(=O)Nc3cccnc3)c2)cn1 [Example 130, 2-{[(4-Fluorophenyl)methyl]oxy}-5-{1-[2-(methyloxy)ethyl]-1H-pyrazol-4-yl}-N-3-pyridinylbenzamide]
[1]
  pIC50 in the LRRK2 alphascreen desensitised protein substrate assay: ≥ 7.0
[2]
  pIC50 in the LRRK2 peptide substrate assay: ≥ 5.6

## Cn1cc(-c2ccc(OCc3ccc(F)cc3F)c(C(=O)Nc3cccnc3)c2)cn1 [Example 116, 2-{[(2,4-Difluorophenyl)methyl]oxy}-5-(1-methyl-1H-pyrazol-4-yl)-N-3-pyridinylbenzamide]
[1]
  pIC50 in the LRRK2 alphascreen desensitised protein substrate assay: ≥ 7.0
[2]
  pIC50 in the LRRK2 peptide substrate assay: ≥ 5.6

## Cc1nocc1NC(=O)c1cc(-c2cnn(CCN3CCOCC3)c2)ccc1OCc1ccc(F)cc1 [Example 129, 2-([(4-Fluorophenyl)methyl]oxy)-N-(3-methyl-4-isoxazolyl)-5-{1-[2-(4-morpholinyl)ethyl]-1H-pyrazol-4-yl}benzamide]
[2]
  pIC50 in the LRRK2 peptide substrate assay: ≥ 5.6

## Cc1nocc1NC(=O)c1cc(C(=O)N2CCOCC2)ccc1OCc1ccc(F)cc1F [Example 126, 2-{[(2,4-Difluorophenyl)methyl]oxy}-N-(3-methyl-4-isoxazolyl)-5-(4-morpholinylcarbonyl)benzamide]
[2]
  pIC50 in the LRRK2 peptide substrate assay: ≥ 5.6

## O=C(Nc1ccnnc1)c1cc(CN2CCOCC2)ccc1OCc1ccc(F)cc1 [Example 119, 2-{[(4-Fluorophenyl)methyl]oxy}-5-(4-morpholinylmethyl)-N-4-pyridazinyl benzamide]
[2]
  pIC50 in the LRRK2 peptide substrate assay: ≥ 5.6

## CN1CCN(C(=O)c2ccc(OCc3ccccc3)c(C(=O)Nc3cccnc3)c2)CC1 [Example 35, 5-[(4-Methyl-1-piperazinyl)carbonyl]-2-[(phenylmethyl)oxy]-N-3-pyridinylbenzamide]
[2]
  pIC50 in the LRRK2 peptide substrate assay: ≥ 5.6

## Cn1cc(-c2ccc(OCc3ccc(F)c(F)c3)c(C(=O)Nc3ccnnc3)c2)cn1 [Example 105, 2-{[(3,4-Difluorophenyl)methyl]oxy}-5-(1-methyl-1H-pyrazol-4-yl)-N-4-pyridazinylbenzamide]
[2]
  pIC50 in the LRRK2 peptide substrate assay: ≥ 5.6

## O=C(Nc1cccnc1)c1cc(Br)ccc1OCc1cccc(F)c1 [Example 57, 5-Bromo-2-{[(3-fluorophenyl)methyl]oxy}-N-3-pyridinyl benzamide]
[2]
  pIC50 in the LRRK2 peptide substrate assay: ≥ 5.6

## Cc1oncc1NC(=O)c1cc(-c2cnn(C)c2)ccc1OCc1ccc(F)cc1 [Example 135, 2-{[(4-Fluorophenyl)methyl]oxy}-N-(5-methyl-4-isoxazolyl)-5-(1-methyl-1H-pyrazol-4-yl)benzamide]
[2]
  pIC50 in the LRRK2 peptide substrate assay: ≥ 5.6

## O=C(Nc1cccnc1)c1cc(CN2CCOCC2)ccc1OCc1ccccc1 [Example 69, 5-(4-Morpholinylmethyl)-2-[(phenylmethyl)oxy]-N-3-pyridinylbenzamide]
[2]
  pIC50 in the LRRK2 peptide substrate assay: ≥ 5.6

## CCOC(=O)CCc1ccc(OCc2ccccc2)c(C(=O)Nc2cccnc2)c1 [Example 87, Ethyl 3-{-4-[(phenylmethyl)oxy]-3-[(3-pyridinylamino)carbonyl]phenyl}propanoate]
[2]
  pIC50 in the LRRK2 peptide substrate assay: ≥ 5.6
